The target in the assay is T1, Nucleosome assembly protein-like 1 (mouse (endogenous in adult mouse cardiomyocytes)) (UniProt P28656).
T1 sequence: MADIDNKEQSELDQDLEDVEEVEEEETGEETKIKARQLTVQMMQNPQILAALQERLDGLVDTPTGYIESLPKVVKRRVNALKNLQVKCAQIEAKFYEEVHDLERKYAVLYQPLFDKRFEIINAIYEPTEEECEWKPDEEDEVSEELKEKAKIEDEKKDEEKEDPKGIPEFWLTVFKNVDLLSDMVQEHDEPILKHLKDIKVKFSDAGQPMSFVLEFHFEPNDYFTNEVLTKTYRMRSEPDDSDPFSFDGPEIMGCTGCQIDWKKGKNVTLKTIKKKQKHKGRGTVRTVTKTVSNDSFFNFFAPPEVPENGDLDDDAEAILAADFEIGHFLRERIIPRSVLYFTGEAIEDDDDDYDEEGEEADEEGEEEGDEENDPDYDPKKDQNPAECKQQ
Description: co-IP; endogenous proteins; total protein from cultured cardiomyocytes (normoxia or hypoxia/normoxia, treated with rbWnt2 or PBS); 1000 ug total protein with the IP antibody or rabbit IgG at 4 °C overnight, Protein A/G PLUS-Agarose 4 h at 4 °C, washed with PBS 3 times, western blot. For orientation: A western blot detects proteins with antibodies after separation by electrophoresis.

These are yes or no findings as the source states them, for the method shown. Binding seen in cells or lysates may run through a third protein. Some entries that bind do so weakly or less than the wild type.

B1: Trim11 (enzyme, UniProt Q99PQ2 1-467)
chain: MAAPDLSTNLQEEATCAICLDYFTDPVMTDCGHNFCRECIRRCWGQPEGPYACPECRELSAQRNLRPNRPLAKMAEMARRLHPPSPVPQGVCAAHREPLTTFCGDDLSLLCPICERSEHWTHRVRPLQEAADDLKGRLEKSLEHLRKQMEDAMLFQAQAEETCALWQKMVESQRQNVLGEFERLRRLLAEEEQQLLQKLEEEELEVLPRLREGAARLGQQSTQLAALISELESRCQLPALGLLQDIKDALCRVQDVKLQPPAVVPMELRTVCRVPGLVETLRRFRGDITLDPDTANPELVLSEDRRSVQRGEQRQALPDNPERFDPGPCVLGQERITSGRHYWEVEVGDQTSWALGVCKETANRKEKGELSAGNGFWILVFLGSFYNSNEPAFSPLRDPPKRVGIFLDYEAGHLSFYSATDGSLLFIFPETLFSGTLRPLFSPLSSSPTPMTICRLIGVSGDTLGPQ
B1: the binding entry was “binds”.

The values above are taken from paper PMC12705695.
